Data reported in PubChem BioAssay AID1259415 (National Center for Advancing Translational Sciences (NCATS), 2018).
In all, about 410,000 compounds went through this assay and about 18,000 (4.4%) were called active. This list was built around the results that the source calls inconclusive (neither active nor inactive); the mix of calls is not that of the screen. Rule as the data show it: active = activity change below about -60%; inconclusive = no clear call, values can overlap the other calls; inactive = above about -39%. The source holds several records for some structures; these can differ, active in one and inactive in another.

Assay: qHTS Assay for inhibitors of the human cytomegalovirus (HCMV)
Conditions: HFF cells, HCMV-luciferase reporter, 72 h; at 57.5 µM; stronger effect = lower value
Method in brief: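 Compounds were evaluated in HFFs infected with an HCMV luciferase reporter virus (MOI 1 PFU/cell). Luciferase in lysates collected 72 h post infection served as the replication measure.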
% is scaled to controls: 0 for no effect and ±100 for the full control effect.

| Compound | activity change, negative = inhibition |
| --- | --- |
| CN(C)C(=O)CSc1nnc(-c2ccc(F)cc2)c2ccccc12 | inconclusive: -52.6% |
| Cc1cc(CSc2nc(C)cc(=O)[nH]2)c2ncccc2c1 | inactive: -29.8% |
| COc1ccc(/C=C/c2n[nH]c(=O)c(C#N)c2C)cc1 | inconclusive: -40.8% |
| COc1ccccc1N1CCN(C(=O)CCc2nnc3ccc(N4CCC(C)CC4)nn23)CC1 | inconclusive: -40.3% |
| COCn1c(-c2cccc(Br)c2)nc2ccccc21 | inactive: 57.4% |
| CCCC(=O)Nc1ccc2nc(SCC(=O)N3CCOCC3)sc2c1 | inactive: 36.9% |
| CCN1CCN(C(=O)CCc2nnc3ccc(N4CCN(c5cccc(OC)c5)CC4)nn23)CC1 | inactive: -22.7% |
| CCc1cc(=O)[nH]c(SCc2nc(-c3ccc(C(F)(F)F)cc3)no2)n1 | inactive: 57.9% |
| O=C(c1ccccc1)c1cc2ccccc2oc1=O | inactive: 129% |
| CC(C)N1CCN(Cc2cccs2)CC1CCO (stereo not given) | inactive: -5.61% |
| CN(C)CC(O)CN1C(=O)N(CN2C(=O)N(CC(O)CN(C)C)C(=O)C2(C)C)C(C)(C)C1=O (stereo not given) | active: -61.9% |
| COCCn1c(=O)[nH]c2cc(C(=O)N3CCN(c4cccc(C)c4C)CC3)ccc2c1=O | inconclusive: -42.1% |
| C#CCNC[C@@H]1CSCCS(=O)(=O)N1 | inactive: 6.46% |
| CCCOc1ccc(CNC(=O)C2CCN(C(=O)N3CCOc4ccccc43)CC2)cc1 | inactive: -15.9% |
| CCc1cc(C(=O)N(Cc2ccccc2)c2c(N)n(CCOC)c(=O)[nH]c2=O)sc1C | inactive: -32.8% |
| CN(CCc1ccccc1)C(=O)c1ccc(NC(=O)Cc2ccc(NC(=O)C3CCN(C(=O)CCc4ccccc4)CC3)cc2)cc1 | active: -88.4% |
| COc1ccc(C(C)=O)cc1CSc1nnc(Nc2ccc(C)cc2C)s1 | inactive: -30.4% |
| CN(CC(=O)Nc1ccccc1Sc1ccccc1)C1CCCCC1 | inconclusive: -42% |
| COc1ccccc1CCNC(=O)C1CCN(c2nnc(C)c3c(C)n(-c4ccc(C)cc4)nc23)CC1 | active: -93.4% |
| COc1cc(OC)cc(C2=Cc3ccccc3C(CC(C)=O)N2c2ccc(-c3cccs3)cc2)c1 (stereo not given) | inconclusive: -49.6% |
| COc1ccccc1N(CC(=O)NCCC1=CCCCC1)S(=O)(=O)c1ccccc1 | inconclusive: -49.6% |
| COC(=O)c1csc(S(=O)(=O)N2CCCCC2)c1OC | inactive: 5.92% |
| O=[N+]([O-])c1ccc(O)c(-c2ccnc3cc(-c4ccccc4)nn23)c1 | active: -77.8% |
| COc1ccc2c(c1)CCc1cnc(N)nc1-2 | active: -67.5% |
| Cc1ccc(CS(=O)(=O)c2ncc(Cl)c(C(=O)Nc3ccc(OC(F)F)cc3)n2)cc1 | active: -111% |
| CC1CCCN(C2(O)C(=O)Nc3ccc(Cl)cc32)C1 (stereo not given) | inconclusive: -45.4% |
| O=C(c1cc(S(=O)(=O)N2CCOCC2)c(Cl)cc1Cl)N1CCN(S(=O)(=O)c2cccc(F)c2)CC1 | inconclusive: -48.9% |
| COCCCNC(=O)c1ccc(Cn2c(=O)c3cccn3c3cccnc32)cc1 | inactive: 8.32% |

| Compound | activity change, negative = inhibition |
| --- | --- |
| COC(=O)N/N=C/c1cn(Cc2ccccc2F)c2ccccc12 | inactive: -31.6% |
| c1csc(C2C3=C(Nc4ncnn42)c2ccccc2OC3)c1 (stereo not given) | inconclusive: -54.6% |
| CC(=O)Nc1cccc(-c2csc(C(O)c3cccc(Cl)c3)n2)c1 (stereo not given) | inconclusive: -42.7% |
| COc1ccc(C(CC(=O)Nc2ccc(Br)cn2)N2Cc3ccccc3C2=O)cc1 (stereo not given) | inconclusive: -44.8% |
| O=C(/C(=C/c1cccc(Cl)c1)c1nc2ccccc2[nH]1)c1ccccc1 | active: -99.6% |
| Cc1nc2cc(Cl)c(Cl)cc2n1CCCO | inconclusive: -41.7% |
| COc1ccccc1Cc1c(-c2ccc(C)cc2)nc2ccc(C)cn12 | inactive: 26.4% |
| Cc1ccc(C(C(=O)NCc2ccccc2)N(Cc2cccs2)C(=O)c2ccc3c(c2)OCCO3)cc1 (stereo not given) | active: -68.9% |
| Cc1ccc(S(=O)(=O)N2CCN(C(=O)c3ccccn3)CC2)c(C)c1 | inconclusive: -51.5% |
| CCOc1ccc(N=c2scc(-c3ccccc3)n2CCO)cc1 | inconclusive: -56.4% |
| O=C(Nc1nc(-c2ccc(S(=O)(=O)N3CCCC3)cc2)cs1)c1cccs1 | active: -87% |
| O=C(Cc1ccccc1)Nc1c[nH]c(=O)[nH]c1=O | inconclusive: -44.4% |
| COc1ccccc1N1CCN(c2cc(C)nc3nncn23)CC1 | inconclusive: -46.7% |
| COc1ccc2[nH]c3c(c2c1)CCNC3=O | inactive: -25% |
| CCc1ccc(OCC2NCCc3cc(OC)c(OC)cc32)cc1 (stereo not given) | active: -89.6% |
| Cc1ccccc1CN1C[C@@H]2C[C@@H](c3cn[nH]c3-c3ccc(F)cc3)N3CCC[C@@]23C1=O | active: -71.1% |
| O=C(CCNC(=O)Cn1ccc2ccccc2c1=O)NCC1CCCC1c1ccccc1 (stereo not given) | inconclusive: -50.6% |
| OC[C@@H]1CN(Cc2ccc(Cl)cc2)C[C@H](n2cnc3c(N4CCOCC4)ncnc32)O1 | inconclusive: -54.8% |
| CCOC(=O)N1CCN(C(=O)C[C@H]2C[C@@]3(C(=O)OC)C(=C[C@H](C(C)(C)C)O[C@@H]3C)N(CCC3=CCCCC3)C2=O)CC1 | inactive: 114% |
| O=C1CCSC2(C(=O)N(Cc3ccc(F)cc3)c3ccccc32)N1c1cccc(F)c1 (stereo not given) | inactive: 0% |
| COc1ccc(Nc2ncnc3ccc(C)cc23)cc1 | active: -72.3% |
| COCCNCC(=O)Nc1ccc(OC(F)(F)F)cc1 | inactive: 28% |
| Cc1cccc(SCC(=O)Nc2ccccc2[N+](=O)[O-])c1 | inconclusive: -50.3% |
| CCN(CC)CCCNC(=O)Cn1cnc2sc(C)c(S(=O)(=O)N3CCC(C)CC3)c2c1=O | inactive: -32.6% |
| COc1ccc(OC)c(C2=Nn3c(nnc3C3CCCCC3)SC2)c1 | inconclusive: -52.6% |
| Cc1ccc(C(C)C)c(OCC(=O)Nc2ccc(O)c(-c3nc4cc(Cl)ccc4o3)c2)c1 | inconclusive: -46.1% |
| COc1ccc(CC(=O)NNC(=O)c2nn(Cc3ccccc3)c(=O)c3ccccc23)cc1OC | inactive: -32.1% |

An excerpt from above in order of formula weight, falling:

| Compound | activity change, negative = inhibition |
| --- | --- |
| O=C(Nc1nc(-c2ccc(S(=O)(=O)N3CCCC3)cc2)cs1)c1cccs1 | active: -87% |
| O=C(/C(=C/c1cccc(Cl)c1)c1nc2ccccc2[nH]1)c1ccccc1 | active: -99.6% |
| CCOc1ccc(N=c2scc(-c3ccccc3)n2CCO)cc1 | inconclusive: -56.4% |
